{"sequences": {"note": "Protein sequences, listed by entry. Tags and fused reporters are not part of them. Lines headed by an entry give the natural chain unless they say otherwise; changes in a name come on top.", "UniProt Q08605": "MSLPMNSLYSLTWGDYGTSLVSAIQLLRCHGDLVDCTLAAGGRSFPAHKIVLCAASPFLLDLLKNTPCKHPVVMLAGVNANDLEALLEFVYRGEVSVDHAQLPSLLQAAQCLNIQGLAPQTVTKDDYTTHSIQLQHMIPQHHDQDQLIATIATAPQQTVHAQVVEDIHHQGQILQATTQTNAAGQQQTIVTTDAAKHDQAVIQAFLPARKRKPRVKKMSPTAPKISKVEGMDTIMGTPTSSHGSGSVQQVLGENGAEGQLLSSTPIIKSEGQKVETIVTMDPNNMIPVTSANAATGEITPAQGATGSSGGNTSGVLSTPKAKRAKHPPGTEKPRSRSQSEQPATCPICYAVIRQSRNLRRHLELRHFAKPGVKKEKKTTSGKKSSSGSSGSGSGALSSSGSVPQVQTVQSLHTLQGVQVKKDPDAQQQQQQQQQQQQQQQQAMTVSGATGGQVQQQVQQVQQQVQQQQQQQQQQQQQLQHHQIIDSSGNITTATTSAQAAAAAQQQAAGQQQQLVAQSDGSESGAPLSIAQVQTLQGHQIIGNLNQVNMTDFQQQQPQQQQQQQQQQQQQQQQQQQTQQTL"}, "source": "paper PMC5351981", "binders": {"B1": {"name": "Bab2/BTB-II (protein, UniProt Q9W0K4 1-1067)", "chain": "MDMTKQIVDFEIKSELIGEIDQFEASDYTMAPPEEPKMVEESPQLGHLEDQNRKYSPEREVEPTLQDPSEVVDQMQKDTESVGEVKSPEKDVETELVKSKASPMNDQALTPPPRPLTSSEVVGLRDPEHTELRMCLEAKKSRSLPVSPQPQPNLKLAGSALFEFGQRSSPVETKIKTNPETKPPRRKIVPPSGEGQQFCLRWNNYQSNLTNVFDELLQSESFVDVTLSCEGHSIKAHKMVLSACSPYFQALFYDNPCQHPIIIMRDVSWSDLKALVEFMYKGEINVCQDQINPLLKVAETLKIRGLAEVSAGRGEGGASALPMSAFDDEDEEEELASATAILQQDGDADPDEEMKAKRPRLLPEGVLDLNQRQRKRSRDGSYATPSPSLQGGESEISERGSSGTPGQSQSQPLAMTTSTIVRNPFASPNPQTLEGRNSAMNAVANQRKSPAPTATGHSNGNSGAAMHSPPGGVAVQSALPPHMAAIVPPPPSAMHHHAQQLAAQHQLAHSHAMASALAAAAAGAGAAGAGGAGSGSGSGASAPTGGTGVAGSGAGAAVGSHHDDMEIKPEIAEMIREEERAKMIESGGHGGWMGAAAAATGAASVAADSYQYQLQSMWQKCWNTNQQNLVQQLRFRERGPLKSWRPEAMAEAIFSVLKEGLSLSQAARKFDIPYPTFVLYANRVHNMLGPSLDGGADPRPKARGRPQRILLGMWPEELIRSVIKAVVFRDYREIKEDMSAHQYANGQGHGTYIGGGTTTNGYHSAAAAKLAAQNAALAPPDAGSPLSSMTETLRRQILSQQQQHQQHHQQQAHHQQQPSHHQQQSPHAQSMNMYKSPAYLQRSEIEDQVSAAAAVAAAAAKHQQQQGERRGSENLPDLSALGLMGLPGLNVMPSRGSGGGSGGAAPNSAASYARELSRERERDRERERERELSRQYGSQSRGSSSGSGSAKSLTASQRPGAASPYSAAHYAKHQASAYNKRFLESLPAGIDLEAFANGLLQKSVNKSPRFEDFFPGPGQDMSELFANPDASAAAAAAAYAPPGAIRESPLMKIKLEQQHATELPHED"}, "B2": {"name": "CG2199 (protein, UniProt Q8IRH5 1-733)", "chain": "MRNILLCENMTKVQKEVRCDHCGTSQGSKSVFSGQKVFLGRKITDVLETITHRSIPSSLPIKICFVCTSTFMSSAALIEKVRETVDRVQEQPAKKTKVAEIEEPSTQESDKKAVKVPKKNTTLRQRSKSIAAFPPSFVNGANTNTEIEIISASPKKLDKTPKKQISRLFEDNLNDSVKLTPAKEVSSTKKAFLNLFGNGGNDAIEVLTESEEEEDSDKGPITINTNNFQCPECEFHAKFPKPYKEHLQKEHGLQRPRIYPCTLCIKTFGVLKTLKNHLRDTHSRTFESEAKTKAKESKEKEAKSGAKNKIDAKAKETNAVSQRKKPKEKKSKEKKTEIKCNVETKVVDEIDDQVNNKKGTDSEDADQTQATKIASFKALNESLMKKRMLENVIDSEYTFAINGSSASTPRADSNNFQCEICDCELMTAKQMQEHMKTVHSIDKPKVFKCHVCEKSLATKQSLKTHMTLHADGAEAPNSSKRKILQDEDEDVDILGTTQIENTAEKVEGPKKSQQSPTKAAKFTNRKILQEEDEVVEIVDAFKTDNTAEDDEGPAEEKIIRSRNNIQHQVDGGMIAPRSPAKKTKKTSHVDLSVSTTNGNSPAKSEKRKKQDKSEDTLPSSDVDIVEEINYNVRPHKKARLESIGDSTADESTLSCDRCGKFVKSRQRLDSHMEKKHAAKLQCTLCKEVYQNQMDYVAHFSNCGSEGGLPCGVANCKKVFTEANFLSSHLRKRH"}, "B3": {"name": "Pc (protein, UniProt P26017 1-390)", "chain": "MTGRGKGSKGKLGRDNATDDPVDLVYAAEKIIQKRVKKGVVEYRVKWKGWNQRYNTWEPEVNILDRRLIDIYEQTNKSSGTPSKRGIKKKEKEPDPEPESEEDEYTFTENDVDTHQATTSSATHDKESKKEKKHHHHHHHHHHIKSERNSGRRSESPLTHHHHHHHHESKRQRIDHSSSSNSSFTHNSFVPEPDSNSSSSEDQPLIGTKRKAEVLKESGKIGVTIKTSPDGPTIKPQPTQQVTPSQQQPFQDQQQAEKIASEAATQLKSEQQATPLATEAINTTPAESGAEEEEVANEEGNQQAPQVPSENNNIPKPCNNLAINQKQPLTPLSPRALPPRFWLPAKCNISNRVVITDVTVNLETVTIRECKTERGFFRERDMKGDSSPVA"}}, "note": "These are yes or no findings as the source states them, for the method shown. In cells and extracts the contact can be indirect. A yes stands for co-enrichment or nearness to the bait. Other partners may have been found. A no says only that the protein was not detected with the bait.", "data": [{"target": "GAGA factor (GAF) (Drosophila melanogaster (endogenous in embryos)) (UniProt Q08605)", "assay": "affinity purification with mass spectrometry; GAF polyclonal antibody coupled to protein A Sepharose; 10 mg nuclear extract of 0-12 h embryos, HEMG-150, 2 h; washed with HEMG-500 plus 0.1% Nonidet P-40; eluted with 0.1 M glycine pH 2.5; triplicate; mock: protein A Sepharose with no antibody", "values": [{"binder": "B1", "binding": "binds"}, {"binder": "B2", "binding": "binds"}, {"binder": "B3", "binding": "no binding"}]}]}
